Source: US7632972B2, “Compounds and methods for treatment of cancer and modulation of programmed cell death for melanoma and other cancer cells” (The Board of Trustees of the University of Illionis, priority 2003, dated 2009)

Key:
Format in all cases: cell-based, human
[1] = system: K-562; assay: NCI 60 cell line screen (SRB), Leukemia
Source text: (§1) The operation of this screen utilizes 60 different human tumor cell lines, representing leukemia, melanoma and cancers of the lung, colon, brain, ovary, breast, prostate, and kidney. The aim is to prioritize for further evaluation, synthetic compounds or natural product samples showing selective growth inhibition or cell killing of particular tumor cell lines. This screen is unique in that the complexity of a 60 cell line dose response produced by a given compound results in a biological response pattern which can be utilized in pattern recognition algorithms. Using these algorithms, it is possible to assign a putative mechanism of action to a test compound, or to determine that the response pattern is unique and not similar to that of any of the standard prototype compounds included in the NCl database (see DTP Overview tab). In addition, following characterization of various cellular molecular targets in the 60 cell lines, it may be possible to select compounds most likely to interact with a specific molecular target.
(§2) The human tumor cell lines of the cancer screening panel are grown in RPMI 1640 medium containing 5% fetal bovine serum and 2 mM L-glutamine. For a typical screening experiment, cells are inoculated into 96 well microtiter plates in 100 μL at plating densities ranging from 5,000 to 40,000 cells/well depending on the doubling time of individual cell lines. After cell inoculation, the microtiter plates are incubated at 37° C., 5% CO2, 95% air and 100% relative humidity for 24 h prior to addition of experimental drugs.
(§3) After 24 h, two plates of each cell line are fixed in situ with TCA, to represent a measurement of the cell population for each cell line at the time of drug addition (Tz). Experimental drugs are solubilized in dimethyl sulfoxide at 400-fold the desired final maximum test concentration and stored frozen prior to use. At the time of drug addition, an aliquot of frozen concentrate is thawed and diluted to twice the desired final maximum test concentration with complete medium containing 50 μg/ml gentamicin. Additional four, 10-fold or ½ log serial dilutions are made to provide a total of five drug concentrations plus control. Aliquots of 100 μl of these different drug dilutions are added to the appropriate microtiter wells already containing 100 μl of medium, resulting in the required final drug concentrations.
(§4) Following drug addition, the plates are incubated for an additional 48 h at 37° C., 5% CO2, 95% air, and 100% relative humidity. For adherent cells, the assay is terminated by the addition of cold TCA. Cells are fixed in situ by the gentle addition of 50 μl of cold 50% (w/v) TCA (final concentration, 10% TCA) and incubated for 60 minutes at 4° C. The supernatant is discarded, and the plates are washed five times with tap water and air dried. Sulforhodamine B (SRB) solution (100 μl) at 0.4% (w/v) in 1% acetic acid is added to each well, and plates are incubated for 10 minutes at room temperature. After staining, unbound dye is removed by washing five times with 1% acetic acid and the plates are air dried. Bound stain is subsequently solubilized with 10 mM trizma base, and the absorbance is read on an automated plate reader at a wavelength of 515 nm. For suspension cells, the methodology is the same except that the assay is terminated by fixing settled cells at the bottom of the wells by gently adding 50 μl of 80% TCA (final concentration, 16% TCA). Using the seven absorbance measurements [time zero, (Tz), control growth, (C), and test growth in the presence of drug at the five concentration levels (Ti)], the percentage growth is calculated at each of the drug concentrations levels. Percentage growth inhibition is calculated as: [(Ti−Tz)/(C−Tz)]×100 for concentrations for which Ti>/=Tz [(Ti−Tz)/Tz]×100 for concentrations for which Ti<Tz.
(§5) Three dose response parameters are calculated for each experimental agent. […]

[2] = system: MOLT-4; assay: NCI 60 cell line screen (SRB), Leukemia
Source text: as §1, §2, §3, §4, §5

[3] = system: RPMI-8226; assay: NCI 60 cell line screen (SRB), Leukemia
Source text: as §1, §2, §3, §4, §5

[4] = system: SF-268; assay: NCI 60 cell line screen (SRB), CNS Cancer
Source text: as §1, §2, §3, §4, §5

[5] = system: SNB-19; assay: NCI 60 cell line screen (SRB), CNS Cancer
Source text: as §1, §2, §3, §4, §5

[6] = system: SNB-75; assay: NCI 60 cell line screen (SRB), CNS Cancer
Source text: as §1, §2, §3, §4, §5

[7] = system: U251; assay: NCI 60 cell line screen (SRB), CNS Cancer
Source text: as §1, §2, §3, §4, §5

[8] = system: BT-549; assay: NCI 60 cell line screen (SRB), Breast Cancer
Source text: as §1, §2, §3, §4, §5

[9] = system: MDA-MB-231/ATCC; assay: NCI 60 cell line screen (SRB), Breast Cancer
Source text: as §1, §2, §3, §4, §5

[10] = system: MDA-MB-435; assay: NCI 60 cell line screen (SRB), Breast Cancer
Source text: as §1, §2, §3, §4, §5

[11] = system: T-47D; assay: NCI 60 cell line screen (SRB), Breast Cancer
Source text: as §1, §2, §3, §4, §5

COc1cccc(CCNC(=O)CC(c2ccccc2)(c2ccccc2)c2ccccc2)c1 [Compound Z3]
Mean Optical Densities ([1]; K-562, Log10 Concentration −4.0): 0.445 | Mean Optical Densities ([1]; K-562, Log10 Concentration −5.0): 0.491 | Mean Optical Densities ([1]; K-562, Log10 Concentration −6.0): 1.198 | Mean Optical Densities ([1]; K-562, Log10 Concentration −7.0): 1.195 | Mean Optical Densities ([1]; K-562, Log10 Concentration −8.0): 1.213 | Mean Optical Densities ([2]; MOLT-4, Log10 Concentration −4.0): 0.229 | Mean Optical Densities ([2]; MOLT-4, Log10 Concentration −5.0): 0.233 | Mean Optical Densities ([2]; MOLT-4, Log10 Concentration −6.0): 0.551 | Mean Optical Densities ([2]; MOLT-4, Log10 Concentration −7.0): 0.623 | Mean Optical Densities ([2]; MOLT-4, Log10 Concentration −8.0): 0.588 | Mean Optical Densities ([3]; RPMI-8226, Log10 Concentration −4.0): 0.416 | Mean Optical Densities ([3]; RPMI-8226, Log10 Concentration −5.0): 0.450 | Mean Optical Densities ([3]; RPMI-8226, Log10 Concentration −6.0): 0.945 | Mean Optical Densities ([3]; RPMI-8226, Log10 Concentration −7.0): 0.954 | Mean Optical Densities ([3]; RPMI-8226, Log10 Concentration −8.0): 0.898 | Mean Optical Densities ([4]; SF-268, Log10 Concentration −4.0): 0.896 | Mean Optical Densities ([4]; SF-268, Log10 Concentration −5.0): 1.039 | Mean Optical Densities ([4]; SF-268, Log10 Concentration −6.0): 1.373 | Mean Optical Densities ([4]; SF-268, Log10 Concentration −7.0): 1.468 | Mean Optical Densities ([4]; SF-268, Log10 Concentration −8.0): 1.402 | Mean Optical Densities ([5]; SNB-19, Log10 Concentration −4.0): 0.857 | Mean Optical Densities ([5]; SNB-19, Log10 Concentration −5.0): 1.195 | Mean Optical Densities ([5]; SNB-19, Log10 Concentration −6.0): 1.195 | Mean Optical Densities ([5]; SNB-19, Log10 Concentration −7.0): 1.306 | Mean Optical Densities ([5]; SNB-19, Log10 Concentration −8.0): 1.233 | Mean Optical Densities ([6]; SNB-75, Log10 Concentration −4.0): 0.646 | Mean Optical Densities ([6]; SNB-75, Log10 Concentration −5.0): 0.714 | Mean Optical Densities ([6]; SNB-75, Log10 Concentration −6.0): 0.700 | Mean Optical Densities ([6]; SNB-75, Log10 Concentration −7.0): 0.711 | Mean Optical Densities ([6]; SNB-75, Log10 Concentration −8.0): 0.639 | Mean Optical Densities ([7]; U251, Log10 Concentration −4.0): 0.308 | Mean Optical Densities ([7]; U251, Log10 Concentration −5.0): 0.506 | Mean Optical Densities ([7]; U251, Log10 Concentration −6.0): 0.882 | Mean Optical Densities ([7]; U251, Log10 Concentration −7.0): 0.946 | Mean Optical Densities ([7]; U251, Log10 Concentration −8.0): 0.899 | Mean Optical Densities ([8]; BT-549, Log10 Concentration −4.0): 0.485 | Mean Optical Densities ([8]; BT-549, Log10 Concentration −5.0): 0.518 | Mean Optical Densities ([8]; BT-549, Log10 Concentration −6.0): 0.591 | Mean Optical Densities ([8]; BT-549, Log10 Concentration −7.0): 0.641 | Mean Optical Densities ([8]; BT-549, Log10 Concentration −8.0): 0.571 | Mean Optical Densities ([9]; Log10 Concentration −4.0): 0.941 | Mean Optical Densities ([9]; Log10 Concentration −5.0): 0.768 | Mean Optical Densities ([9]; Log10 Concentration −6.0): 0.732 | Mean Optical Densities ([9]; Log10 Concentration −7.0): 0.755 | Mean Optical Densities ([9]; Log10 Concentration −8.0): 0.752 | Mean Optical Densities ([10]; MDA-MB-435, Log10 Concentration −4.0): 1.301 | Mean Optical Densities ([10]; MDA-MB-435, Log10 Concentration −5.0): 1.398 | Mean Optical Densities ([10]; MDA-MB-435, Log10 Concentration −6.0): 1.779 | Mean Optical Densities ([10]; MDA-MB-435, Log10 Concentration −7.0): 1.913 | Mean Optical Densities ([10]; MDA-MB-435, Log10 Concentration −8.0): 1.780 | Mean Optical Densities ([11]; Log10 Concentration −4.0): 0.631 | Mean Optical Densities ([11]; Log10 Concentration −5.0): 0.549 | Mean Optical Densities ([11]; Log10 Concentration −6.0): 0.613 | Mean Optical Densities ([11]; Log10 Concentration −7.0): 0.700 | Mean Optical Densities ([11]; Log10 Concentration −8.0): 0.615
